{"source": "patent EP2769738B1", "about": "(Invivogen, priority 2013, dated 2014)", "note": "Some entries repeat one wording, which the source may state once for all of them.", "data": [{"tested_on": "plasmid DNA (pDNA)", "assay": "Gel shift (mobility shift) assay of pDNA complexes", "assay_type": "binding", "details": "pDNA:molecule ratio 3:24 (w:w), pBsr2pCpGLacZh plasmid, 0.8% agarose gel, compared to pDNA alone", "values": [{"smiles": "CCCCCCCCCCCCCCCC(=O)OCC(CSC[C@H](N)C(=O)N[C@@H](CCCCNC(=O)CNC(=O)c1ccc(Cn2c(O)nc3c(N)nc(NCCCC)nc32)cc1)C(=O)NCCCNCCCCNCCCN)OC(=O)CCCCCCCCCCCCCCC", "note": "(stereo partly drawn) [CL475, (6R,9S)-6,23-diamino-9-(4-(2-(4-((6-amino-2-(butylamino)-8-hydroxy-9H-purin-9-yl)methyl)benzamido)acetamido)butyl)-7,10-dioxo-4-thia-8,11,15,20-tetraazatrico sane-1,2-diyl dipalmitate]", "complexation of pDNA (retardation of pDNA migration in the gel)": "inability to migrate through an agarose gel"}, {"smiles": "CCCCCCCCCCCCCCCC(=O)OCC(CSC[C@H](N)C(=O)NCCCC[C@H](NC(=O)c1ccc(Cn2c(O)nc3c(N)nc(NCCCC)nc32)cc1)C(=O)NCCCNCCCCNCCCN)OC(=O)CCCCCCCCCCCCCCC", "note": "(stereo partly drawn) [CL486, (6R,13S)-6,27-diamino-13-(4-((6-amino-2-(butylamino)-8-hydroxy-9H-purin-9-yl)methyl)benzamido)-7,14-dioxo-4-thia-8,15,19,24-tetraazaheptacosane-1,2-diyl dipalmitate]", "complexation of pDNA (retardation of pDNA migration in the gel)": "inability to migrate through an agarose gel"}, {"smiles": "CCCCCCCCCCCCCCCC(=O)OCC(CSC[C@H](N)C(=O)NCCCC[C@H](NC(=O)CNC(=O)c1ccc(Cn2c(O)nc3c(N)nc(NCCCC)nc32)cc1)C(=O)NCCCNCCCCNCCCN)OC(=O)CCCCCCCCCCCCCCC", "note": "(stereo partly drawn) [CL487, (6R,13S)-6,27-diamino-13-(2-(4-((6-amino-2-(butylamino)-8-hydroxy-9H-purin-9-yl)methyl)benzamido)acetamido)-7,14-dioxo-4-thia-8,15,19,24-tetraazaheptacosane-1,2-diyl dipalmitate]", "complexation of pDNA (retardation of pDNA migration in the gel)": "inability to migrate through an agarose gel"}, {"smiles": "CCCCCCCCCCCCCCCC(=O)OCC(CSC[C@H](N)C(=O)N[C@@H](COC(=O)c1ccc(Cn2c(O)nc3c(N)nc(NCCCC)nc32)cc1)C(=O)NCCCNCCCCNCCCN)OC(=O)CCCCCCCCCCCCCCC", "note": "(stereo partly drawn) [CL514, (6R,9S)-6,23-diamino-9-((4-((6-amino-2-(butylamino)-8-hydroxy-9H-purin-9-yl)methyl)benzoyloxy)methyl)-7,10-dioxo-4-thia-8,11,15,20-tetraazatricosane-1,2-diyl dipalmitate]", "complexation of pDNA (retardation of pDNA migration in the gel)": "inability to migrate through an agarose gel"}, {"smiles": "CCCCCCCCCCCCCCCC(=O)OCC(CSC[C@H](N)C(=O)N[C@@H](CCC(=O)NCCCNCCCCNCCCN)C(=O)Nc1ccc(Cn2c(O)nc3c(N)nc(NCCCC)nc32)cc1)OC(=O)CCCCCCCCCCCCCCC", "note": "(stereo partly drawn) [CL527, (6R,9S)-6,25-diamino-9-(4-((6-amino-2-(butylamino)-8-hydroxy-9H-purin-9-yl)methyl)phenylcarbamoyl)-7,12-dioxo-4-thia-8,13,17,22-tetraazapentacosane-1,2-diyl dipalmitate]", "complexation of pDNA (retardation of pDNA migration in the gel)": "inability to migrate through an agarose gel"}, {"smiles": "CCCCCCCCCCCCCCCC(=O)OCC(CSC[C@H](N)C(=O)NCCCNCCCCNCCCNC(=O)CNC(=O)c1ccc(Cn2c(O)nc3c(N)nc(NCCCC)nc32)cc1)OC(=O)CCCCCCCCCCCCCCC", "note": "(stereo partly drawn) [CL553, (20R)-20-amino-1-(4-((6-amino-2-(butylamino)-8-hydroxy-9H-purin-9-yl)methyl)phenyl)-1,4,19-trioxo-22-thia-2,5,9,14,18-pentaazapentacosane-24,25-diyl dipalmitate]", "complexation of pDNA (retardation of pDNA migration in the gel)": "inability to migrate through an agarose gel"}]}, {"tested_on": "plasmid DNA (pDNA)", "assay": "Gel shift (mobility shift) assay of pDNA complexes", "assay_type": "binding", "details": "pDNA:molecule ratio 3:24 (w:w), pBsr2pCpGLacZh plasmid, 0.8% agarose gel, compared to pDNA alone", "remark": "another data set of the same source", "values": [{"smiles": "CCCCCCCCCCCCCCCC(=O)OCC(CSC[C@@H](N)C(=O)N[C@@H](CO)C(=O)N[C@@H](CCCCN)C(=O)N[C@@H](CCCCN)C(=O)N[C@@H](CCCCN)C(=O)N[C@H](CCCCN)C(=O)Nc1ccc(Cn2c(O)nc3c(N)nc(NCCCC)nc32)cc1)OC(=O)CCCCCCCCCCCCCCC", "note": "(stereo in doubt) [CL413, (6S,9S,12S,15S,18S,21R)-6,25-diamino-21-(4-((6-amino-2-(butylamino)-8-hydroxy-9H-purin-9-yl)methyl)phenylcarbamoyl)-12,15,18-tris(4-aminobutyl)-9-(hydroxylmethyl)-7,10, 13,16,19-pentaoxo-4-thia-8,11,14,17,20-pentaazapentacosane-1,2-diyl dipalmitate]", "complexation of pDNA (retardation of pDNA migration in the gel)": "inability to migrate through an agarose gel"}, {"smiles": "CCCCCCCCCCCCCCCC(=O)OCC(CSC[C@H](N)C(=O)N[C@@H](CO)C(=O)N[C@@H](CCCCN)C(=O)N[C@@H](CCCCN)C(=O)N[C@@H](CCCCNC(=O)c1ccc(Cn2c(O)nc3c(N)nc(NCCCC)nc32)cc1)C(=O)N[C@@H](CCCCN)C(=O)O)OC(=O)CCCCCCCCCCCCCCC", "note": "(stereo partly drawn) [CL530, (2S,5S,8S,11S,14S,17R)-17-amino-5-(4-(4-((6-amino-2-(butylamino)-8-hydroxy-9H-purin-9-yl)methyl)benzamido)butyl)-2,8,11-tris(4-aminobutyl)-14-(hydroxymethyl) -4,7,10,13,16,24-hexaoxo-21-(palmitoyloxy)-23-oxa-19-thia-3,6,9,12,15-pentaaza nonatriacontan-1-oic acid]", "complexation of pDNA (retardation of pDNA migration in the gel)": "inability to migrate through an agarose gel"}, {"smiles": "CCCCCCCCCCCCCCCC(=O)OCC(CSC[C@H](N)C(=O)N[C@@H](CO)C(=O)N[C@@H](CCCCN)C(=O)N[C@@H](CCCCNC(=O)c1ccc(Cn2c(O)nc3c(N)nc(NCCCC)nc32)cc1)C(=O)N[C@@H](CCCCN)C(=O)N[C@@H](CCCCN)C(=O)O)OC(=O)CCCCCCCCCCCCCCC", "note": "(stereo partly drawn) [CL531, (2S,5S,8S,11S,14S,17R)-17-amino-8-(4-(4-((6-amino-2-(butylamino)-8-hydroxy-9H-purin-9-yl)methyl)benzamido)butyl)-2,5,11-tris(4-aminobutyl)-14-(hydroxymethyl) -4,7,10,13,16,24-hexaoxo-21-(palmitoyloxy)-23-oxa-19-thia-3,6,9,12,15-pentaaza nonatriacontan-1-oic acid]", "complexation of pDNA (retardation of pDNA migration in the gel)": "inability to migrate through an agarose gel"}, {"smiles": "CCCCCCCCCCCCCCCC(=O)OCC(CSC[C@H](N)C(=O)N[C@@H](CO)C(=O)N[C@@H](CCCCNC(=O)c1ccc(Cn2c(O)nc3c(N)nc(NCCCC)nc32)cc1)C(=O)N[C@@H](CCCCN)C(=O)N[C@@H](CCCCN)C(=O)N[C@@H](CCCCN)C(=O)O)OC(=O)CCCCCCCCCCCCCCC", "note": "(stereo partly drawn) [CL533, (2S,5S,8S,11S,14S,17R)-17-amino-11-(4-(4-((6-amino-2-(butylamino)-8-hydroxy-9H-purin-9-yl)methyl)benzamido)butyl)-2,5,8-tris(4-aminobutyl)-14-(hydroxylmethyl)-4,7,10,13,16,24-hexaoxo-21-(palmitoyloxy)-23-oxa-19-thia-3,6,9,12,15-pentaazanonatria contan-1-oic acid]", "complexation of pDNA (retardation of pDNA migration in the gel)": "inability to migrate through an agarose gel"}, {"smiles": "CCCCCCCCCCCCCCCC(=O)N[C@@H](CSCC(COC(=O)CCCCCCCCCCCCCCC)OC(=O)CCCCCCCCCCCCCCC)C(=O)N[C@@H](CO)C(=O)N[C@@H](CCCCN)C(=O)N[C@@H](CCCCN)C(=O)N[C@@H](CCCCN)C(=O)N[C@@H](CCCCN)C(=O)Nc1ccc(Cn2c(O)nc3c(N)nc(NCCCC)nc32)cc1", "note": "(stereo partly drawn) [CL534, ((6R,9S,12S,15S,18S,21S)-25-amino-21-(4-((6-amino-2-(butylamino)-8-hydroxy-9H-purin-9-yl)methyl)phenylcarbamoyl)-12,15,18-tris(4-aminobutyl)-9-(hydroxylmethyl)-7,10,13,16,19-pentaoxo-6-palmitamido-4-thia-8,11,14,17,20-pentaazapentacosane-1,2-diyl dipalmitate]", "complexation of pDNA (retardation of pDNA migration in the gel)": "inability to migrate through an agarose gel"}, {"smiles": "CCCCCCCCCCCCCCCC(=O)N[C@@H](CSCC(COC(=O)CCCCCCCCCCCCCCC)OC(=O)CCCCCCCCCCCCCCC)C(=O)N[C@@H](CO)C(=O)N[C@@H](CCCCN)C(=O)N[C@@H](CCCCN)C(=O)N[C@@H](CCCCNC(=O)c1ccc(Cn2c(O)nc3c(N)nc(NCCCC)nc32)cc1)C(=O)N[C@@H](CCCCN)C(=O)O", "note": "(stereo partly drawn) [CL535, (2S,5S,8S,11S,14S,17R)-5-(4-(4-((6-amino-2-(butylamino)-8-hydroxy-9H-purin-9-yl)methyl)benzamido)butyl)-2,8,11-tris(4-aminobutyl)-14-(hydroxymethyl)-4,7,10, 13,16,24-hexaoxo-17-palmitamido-21-(palmitoyloxy)-23-oxa-19-thia-3,6,9,12,15-pentaazanonatriacontan-1-oic acid]", "complexation of pDNA (retardation of pDNA migration in the gel)": "inability to migrate through an agarose gel"}, {"smiles": "CCCCCCCCCCCCCCCC(=O)N[C@@H](CSCC(COC(=O)CCCCCCCCCCCCCCC)OC(=O)CCCCCCCCCCCCCCC)C(=O)N[C@@H](CO)C(=O)N[C@@H](CCCCN)C(=O)N[C@@H](CCCCNC(=O)c1ccc(Cn2c(O)nc3c(N)nc(NCCCC)nc32)cc1)C(=O)N[C@@H](CCCCN)C(=O)N[C@@H](CCCCN)C(=O)O", "note": "(stereo partly drawn) [CL536, (2S,5S,8S,11S,14S,17R)-8-(4-(4-((6-amino-2-(butylamino)-8-hydroxy-9H-purin-9-yl)methyl)benzamido)butyl)-2,5,11-tris(4-aminobutyl)-14-(hydroxymethyl)-4,7,10, 13,16,24-hexaoxo-17-palmitamido-21-(palmitoyloxy)-23-oxa-19-thia-3,6,9,12,15-pentaazanonatriacontan-1-oic acid]", "complexation of pDNA (retardation of pDNA migration in the gel)": "inability to migrate through an agarose gel"}, {"smiles": "CCCCCCCCCCCCCCCC(=O)N[C@@H](CSCC(COC(=O)CCCCCCCCCCCCCCC)OC(=O)CCCCCCCCCCCCCCC)C(=O)N[C@@H](CO)C(=O)N[C@@H](CCCCNC(=O)c1ccc(Cn2c(O)nc3c(N)nc(NCCCC)nc32)cc1)C(=O)N[C@@H](CCCCN)C(=O)N[C@@H](CCCCN)C(=O)N[C@@H](CCCCN)C(=O)O", "note": "(stereo partly drawn) [CL537, (2S,5S,8S,11S,14S,17R)-11-(4-(4-((6-amino-2-(butylamino)-8-hydroxy-9H-purin-9-yl)methyl)benzamido)butyl)-2,5,8-tris(4-aminobutyl)-14-(hydroxymethyl)-4,7,10, 13,16,24-hexaoxo-17-palmitamido-21-(palmitoyloxy)-23-oxa-19-thia-3,6,9,12,15-pentaazanonatria contan-1-oic acid]", "complexation of pDNA (retardation of pDNA migration in the gel)": "inability to migrate through an agarose gel"}]}]}
